Library screening results

Sequences of proteins named here, by UniProt entry; tags and fusion partners are left off.
UniProt E9BF75, entry or part of it: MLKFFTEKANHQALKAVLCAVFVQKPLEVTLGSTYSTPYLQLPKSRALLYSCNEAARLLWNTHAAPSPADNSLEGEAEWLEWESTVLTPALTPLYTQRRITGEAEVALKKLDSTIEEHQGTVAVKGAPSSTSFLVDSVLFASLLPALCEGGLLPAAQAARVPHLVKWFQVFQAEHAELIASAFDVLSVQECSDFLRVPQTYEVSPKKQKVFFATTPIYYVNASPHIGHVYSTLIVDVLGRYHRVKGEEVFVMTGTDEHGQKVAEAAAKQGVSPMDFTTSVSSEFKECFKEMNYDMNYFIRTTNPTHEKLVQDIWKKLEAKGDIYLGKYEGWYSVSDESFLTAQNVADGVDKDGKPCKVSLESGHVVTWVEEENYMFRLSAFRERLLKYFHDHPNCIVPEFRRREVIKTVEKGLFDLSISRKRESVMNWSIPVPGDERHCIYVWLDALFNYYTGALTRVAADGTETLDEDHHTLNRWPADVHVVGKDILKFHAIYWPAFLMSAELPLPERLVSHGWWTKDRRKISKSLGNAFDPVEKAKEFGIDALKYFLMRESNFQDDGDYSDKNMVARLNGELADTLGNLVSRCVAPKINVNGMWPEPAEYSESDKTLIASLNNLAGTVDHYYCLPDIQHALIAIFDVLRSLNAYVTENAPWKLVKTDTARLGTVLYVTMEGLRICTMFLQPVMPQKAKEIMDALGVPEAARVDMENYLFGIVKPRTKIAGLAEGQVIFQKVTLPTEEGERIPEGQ

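Methionyl-tRNA synthetase (putative), Leishmania donovani (UniProt E9BF75). Primary screen of methionyl-tRNA synthetase; the read-out is not stated. The test concentration is not given. Values are per cent inhibition. Size under these conditions: about 68,000 compounds, about 24 of them at 50% or above in at least one test.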

Results are percentages, as filed. The controls that fix the scale are not given in the record; negative values are as filed. This is an unselected part of the compounds tested.

With Cc1nn(C)cc1C(=O)N1CCCN(C2Cc3ccccc3C2)CC1 the screen gave 6.969%. COCC(NC1CSCCSC1)c1ccnn1C (stereo unspecified) read 13.71%. With CCc1ccc(NC(=O)c2ncc(C(N)=O)cc2Cl)cc1F the screen gave 13.17%. COC(=O)c1cccc(C(=O)N2CCN(c3ccc(OC)cc3)CC2)n1 gave 7.324%. With CC(Cn1cccn1)NC(=O)Nc1ccccn1 (stereo unspecified) the screen gave 22.16%. CCC(CC)c1cc(CNC(=O)N2CCC(CO)CC2)on1 gave 6.406%. CN1C[C@@H](c2cccc(F)c2)[C@H]2[C@H]1CCCCCN2C(=O)C1CC1 gave 11.49%.

CC(Cn1cccn1)NC(=O)c1cccs1 (stereo unspecified) gave 8.96%. Result for Cc1cc(C[C@@H]2CCC[C@H]2NCc2cc(C)c(O)c(C)c2)on1 was 9.932%. Cc1nc(CN2CCC3(C2)CN(C(=O)c2ccc[nH]2)C3)cs1 read 15.06%. For COCCC(C)NCc1ccccc1-n1ccnc1 (stereo unspecified) the result was 7.599%. CNS(=O)(=O)c1ccc(C(=O)N2CCCC2c2ccncc2)o1 (stereo unspecified) gave 15.92%. Result for O=C(NCC1CC1)[C@@H]1C[C@@H]2CCN(Cc3ccccc3)C[C@H]2O1 was 18.9%. Result for O=C(C1CCOCC1)N1CCCC1c1cncc(CN2CCCC2)n1 (stereo unspecified) was 20%.

CNc1cc(C)nc(C2CN(Cc3cncs3)CCO2)c1 (stereo unspecified) gave 11.65%. Result for CN1CCN(C(=O)c2cccn2C)Cc2cccnc21 was 18.36%. With Cc1cc(N(C)Cc2snnc2C)nc(-c2cccnc2)n1 the screen gave 14.24%. Cc1ccc(N2CC[C@H]3CO[C@H](CN(C)Cc4ccco4)[C@H]3C2)nn1 gave 13.74%. With CC(=O)c1cccc(OCC(=O)NS(=O)(=O)c2cccs2)c1 the screen gave 22.82%. Result for COCCN1CCO[C@H]2[C@H](OCc3cccc(C)n3)CC[C@@H]21 was 14.01%. With Cc1nc(C)c(C(=O)Nc2cc(N3CCC(C)CC3)ncn2)s1 the screen gave 1.242%.

Result for CCC1=NN2C(=N)/C(=C\c3cccn3-c3cccc(Cl)c3)C(=O)N=C2S1 was -8.168%. With CCOc1c(F)cccc1C(=O)N(CC)C(C)c1ccncc1 (stereo unspecified) the screen gave 10.48%. For O=C1CCSCC(C(=O)N2CCCC2)N1 (stereo unspecified) the result was 9.36%. Result for COc1cccc(C2C3=C(COC3=O)Nc3[nH]nc(C)c32)c1O (stereo unspecified) was 1.299%. With COC(=O)COc1cc(NCc2c(C)noc2C)c(Cl)cc1C the screen gave 10.08%. For CCc1nn(C)c(Cl)c1CN1C[C@@H](NC(=O)N(C)C)[C@H](C(C)C)C1 the result was 13.08%. Cc1ccc(NC2CCN(C(=O)CCc3ccncc3)CC2)nn1 read 21.11%.

For CCC1=NC(SCC(=O)c2ccc(Cl)cc2)c2cc(CC)sc2N1 (stereo unspecified) the result was 18.84%. NC(=O)c1cncc(-n2ccc(-c3cnccn3)n2)c1 gave 17.58%. c1cnc2c(c1)cc(C1CCOCC1)n2CCN1CCOCC1 gave 10.62%. With CN(C)c1nc2n(c(=O)n1)CCN2C(=O)Nc1ccc(Cl)cc1 the screen gave 15.14%. With O=C1NCC2(CCCN(C(=O)Cn3nc4ccccc4n3)CC2)O1 (stereo unspecified) the screen gave 5.625%. Result for Cc1ccc(N2N=C(C(N)=O)S(=O)(=O)c3cccnc32)cc1 was 1.832%. With Cc1cc(C)n(C2CCCN(C(=O)Cc3cccc(F)c3)C2)n1 (stereo unspecified) the screen gave 20%.

CC1c2ncc(Cn3cncn3)n2CCN1C(=O)Cc1cccs1 (stereo unspecified) gave -4.261%. c1cnc(-c2nn3c(CN4CCCCC4)nnc3s2)cn1 read 20.85%. For CO[C@@H]1CC[C@H]2[C@H]1OCCN2C(=O)COc1ccc(F)cc1 the result was 5.051%. Cc1ccc(NC2(C(=O)N3CCn4cncc4C3)CCCCC2)cc1C read 15.74%.

Some entries from above, unchanged:

{"compound": "COCCN1CCO[C@H]2[C@H](OCc3cccc(C)n3)CC[C@@H]21", "inhibition": 14.01}
{"compound": "Cc1cc(C[C@@H]2CCC[C@H]2NCc2cc(C)c(O)c(C)c2)on1", "inhibition": 9.932}
{"compound": "CC(=O)c1cccc(OCC(=O)NS(=O)(=O)c2cccs2)c1", "inhibition": 22.82}
{"compound": "O=C(C1CCOCC1)N1CCCC1c1cncc(CN2CCCC2)n1", "stereo": "stereo unspecified", "inhibition": 20}

Measurements from “University of Dundee, Small-Polar-MMV Screening Library” (2021), ChEMBL document CHEMBL3988442.